The list shows a part of the results. Single values are uncertain, as repeats are few or missing.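 Imaging used 1,536-well plates; nuclei positive for cleaved PARP by antibody were divided by total DNA-stained nuclei to yield the apoptosis fraction. Doses for screening kept most cells viable, and cell lines differ markedly in resting and induced cleaved-PARP levels.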
Assays:
Experiment in all cases: cleaved PARP positive nuclei fraction relative to DMSO control; melanoma cells; higher = more apoptosis
Settings in all cases: library dose: low library concentration; 72 h
501Mel = tested on: 501Mel
A101D = tested on: A101D
A2058 = tested on: A2058
C32 = tested on: C32
CBRC008 = tested on: CBRC008 (line from a melanoma biopsy)
CBRC014 = tested on: CBRC014 (line from a melanoma biopsy)
CBRC016 = tested on: CBRC016 (line from a melanoma biopsy)
CBRC017 = tested on: CBRC017 (line from a melanoma biopsy)

Structure (SMILES) | cleaved PARP positive nuclei fraction (501Mel) [%] | cleaved PARP positive nuclei fraction (A101D) [%] | cleaved PARP positive nuclei fraction (A2058) [%] | cleaved PARP positive nuclei fraction (C32) [%] | cleaved PARP positive nuclei fraction (CBRC008) [%] | cleaved PARP positive nuclei fraction (CBRC014) [%] | cleaved PARP positive nuclei fraction (CBRC016) [%] | cleaved PARP positive nuclei fraction (CBRC017) [%]
NC(=O)c1ccc(N(C(N)=O)c2c(F)cccc2F)nc1-c1ccc(F)cc1F + COc1ccc(-c2ccc3c(N4CCOCC4)nc(N4C[C@@H](C)O[C@@H](C)C4)nc3n2)cc1CO [KU0063794] (first compound 0.4 µM, partner dose 0.02 µM) | 231 | 26.8 | 131 | 41.5 | 64.3 | 89 | 37.6 | 116
C[C@@H](N)c1ccc(C(=O)Nc2ccnc3[nH]ccc23)cc1 + O=C(Nc1ccccc1)c1cc([N+](=O)[O-])ccc1Cl [GW9662] (first compound 0.4 µM, partner dose 2 µM) | 76.2 | 35 | 128 | 134 | 76.8 | 124 | 47.9 | 65.6
NC(=O)c1ccc(N(C(N)=O)c2c(F)cccc2F)nc1-c1ccc(F)cc1F + COc1cc2ncnc(Nc3ccc(Oc4ccccc4)cc3)c2cc1OC [SrcI1] (first compound 0.4 µM, partner dose 2 µM) | 161 | 36.9 | 65.3 | 79.2 | 57.6 | 81.7 | 44.8 | 190
CS(=O)(=O)c1ccc(C(=O)Nc2ccc(Cl)c(-c3ccccn3)c2)c(Cl)c1 [vismodegib] + Cn1cc(/C=C2\C(=O)Nc3cccnc32)c2ccccc21 [GW441756] (first compound 1 µM, partner dose 0.4 µM) | 76 | 73.2 | 75.4 | 138 | 44.4 | 81.3 | 68.5 | 90.9
C[C@]1(O)C[C@@H](c2nc(-c3ccc4ccc(-c5ccccc5)nc4c3)c3c(N)nccn32)C1 + CC(C)CCN1c2nc(Nc3cc(F)c(O)c(F)c3)ncc2N(C)C(=O)C1C [BID1870] (first compound 0.4 µM, partner dose 0.2 µM) | 154 | 29.4 | 64.9 | 156 | 115 | 123 | 33.8 | 91.3
COc1ccc(C2=N[C@@H](c3ccc(Cl)cc3)[C@@H](c3ccc(Cl)cc3)N2C(=O)N2CCNC(=O)C2)c(OC(C)C)c1 [Nutlin-3] + CCN(CC)CCCCNc1ncc2cc(-c3cc(OC)cc(OC)c3)c(NC(=O)NC(C)(C)C)nc2n1 [PD173074] (first compound 0.1 µM, partner dose 0.1 µM) | 63 | 66.9 | 113 | 48.8 | 38.7 | 103 | 66.2 | 155

From the supplement of paper PMC4604168 (melanoma cell lines)
